{"source": "the supplement of paper PMC4683952", "note": "Structures can show the parent of a compound that is named as a salt. About 50 (4%) of roughly 1,200 compounds showed activity. Cut-off read from the data, not from the text of the source: all actives reach 1.3 or more but so do some inactives. Some of the results follow."}
{"test_system": "Lgr5 (MarsCy1-Lgr5-EGFP, U2OS)", "assay": "cell-surface Lgr5 expression (SCi1 fluorescence, background-subtracted) relative to WT DMSO (fold of DMSO control); higher = more Lgr5 at the plasma membrane, active = hit call of the paper", "conditions": "U2OS MarsCy1-Lgr5-EGFP stable; treatment time: overnight; 16 µM; library: Johns Hopkins Clinical Compound Library"}
{"smiles": "CCn1cc(C(=O)O)c(=O)c2cc(F)c(N3CCNC(C)C3)c(F)c21", "note": "(stereo not given) [Lomefloxacin]", "cell-surface Lgr5 expression": "inactive: 0.897"}
{"smiles": "COc1cc(C)nc(-n2nc(C)cc2OC)n1", "note": "[Epirizole (Mepirizole)]", "cell-surface Lgr5 expression": "inactive: 1.12"}
{"smiles": "CS(=O)(=O)Nc1ccc([N+](=O)[O-])cc1Oc1ccccc1", "note": "[Nimesulide]", "cell-surface Lgr5 expression": "inactive: 1.13"}
{"smiles": "CNC(=C[N+](=O)[O-])NCCSCc1csc(CN(C)C)n1", "note": "[Nizatidine]", "cell-surface Lgr5 expression": "inactive: 0.896"}
{"smiles": "OCc1ccccc1", "note": "[Benzyl alcohol]", "cell-surface Lgr5 expression": "inactive: 0.798"}
{"smiles": "CO[C@@H]1[C@@H](O[C@@H]2O[C@H](C)[C@@H](O[C@H]3C[C@@](C)(O)[C@@H](OC(=O)CC(C)C)[C@H](C)O3)[C@H](N(C)C)[C@H]2O)[C@@H](CC=O)C[C@@H](C)C(=O)/C=C/[C@@H]2O[C@@H]2C[C@@H](C)OC(=O)C[C@H]1OC(C)=O", "note": "[Carbomycin (Magnamycin A)]", "cell-surface Lgr5 expression": "inactive: 0.996"}
{"smiles": "C[C@H]1[C@H](NC(=O)/C(=N\\OC(C)(C)C(=O)O)c2csc(N)n2)C(=O)N1S(=O)(=O)O", "note": "[Aztreonam]", "cell-surface Lgr5 expression": "inactive: 0.88"}
{"smiles": "CCc1c2c(nc3ccc(OC(=O)N4CCC(N5CCCCC5)CC4)cc13)-c1cc3c(c(=O)n1C2)COC(=O)[C@]3(O)CC", "note": "[Irinotecan hydrochloride trihydrate]", "cell-surface Lgr5 expression": "inactive: 0.897"}
{"smiles": "CSCC[C@H](N)C(=O)O", "note": "[l-methionine]", "cell-surface Lgr5 expression": "inactive: 1.14"}
{"smiles": "Cc1ccc(/C(=C\\CN2CCCC2)c2ccccn2)cc1", "note": "[Triprolidine]", "cell-surface Lgr5 expression": "inactive: 0.932"}
{"smiles": "CC(C)(O/N=C(\\C(=O)N[C@@H]1C(=O)N2C(C(=O)[O-])=C(C[n+]3ccccc3)CS[C@H]12)c1csc(N)n1)C(=O)O", "note": "[Ceftazidime]", "cell-surface Lgr5 expression": "inactive: 0.744"}
{"smiles": "CCCCCCCC/C=C\\CCCCCCCC(=O)[O-].[K+]", "note": "[Oleic acid, potassium salt]", "cell-surface Lgr5 expression": "inactive: 1.17"}
{"smiles": "NC(=O)c1ncn([C@@H]2O[C@H](CO)[C@@H](O)[C@H]2O)c1O", "note": "[Mizoribine]", "cell-surface Lgr5 expression": "inactive: 1.05"}
{"smiles": "CCC(=O)[C@@]1(C)[C@H](C)C[C@H]2[C@@H]3CCC4=CC(=O)C=C[C@]4(C)[C@H]3[C@@H](O)C[C@@]21C", "note": "[Rimexolone]", "cell-surface Lgr5 expression": "active: 1.39"}
{"smiles": "CC(=O)Nc1c(I)c(NC(C)=O)c(I)c(C(=O)O)c1I", "note": "[Sodium diatrizoate]", "cell-surface Lgr5 expression": "inactive: 0.829"}
{"smiles": "CC(=O)Nc1c(I)c(NC(C)=O)c(I)c(C(=O)O)c1I", "note": "[Meglumine diatrizoate]", "cell-surface Lgr5 expression": "inactive: 1.15"}
{"smiles": "CN(N=O)C(=O)N[C@@H](C=O)[C@@H](O)[C@H](O)[C@H](O)CO", "note": "[Streptozocin]", "cell-surface Lgr5 expression": "inactive: 1.05"}
{"smiles": "CCOC(=O)Nc1ccc2c(c1)N(C(=O)CCN1CCOCC1)c1ccccc1S2", "note": "[Moricizine hydrochloride]", "cell-surface Lgr5 expression": "inactive: 0.934"}
{"smiles": "O=c1c(-c2ccc(O)cc2)coc2cc(O)cc(O)c12", "note": "[Genistein]", "cell-surface Lgr5 expression": "inactive: 0.977"}
{"smiles": "O=C([O-])CC(O)(CC(=O)[O-])C(=O)[O-].[Li+].[Li+].[Li+]", "note": "[Tri-lithium citrate]", "cell-surface Lgr5 expression": "inactive: 1.06"}
{"smiles": "C[N+](C)(C)CCO.O=C([O-])CC(O)(CC(=O)O)C(=O)O", "note": "[Choline dihydrogen citrate]", "cell-surface Lgr5 expression": "inactive: 0.803"}
{"smiles": "CC(C)(CO)[C@@H](O)C(=O)NCCCO", "note": "[Dexpanthenol (D-Panthenol)]", "cell-surface Lgr5 expression": "inactive: 1.2"}
{"smiles": "CNC[C@H](O)c1cccc(O)c1", "note": "[L-Phenylephrine hydrochloride]", "cell-surface Lgr5 expression": "inactive: 0.598"}
{"smiles": "CCOc1ccccc1C(N)=O", "note": "[Ethenzamide (2-ethoxybenzamide)]", "cell-surface Lgr5 expression": "inactive: 1.23"}
{"smiles": "NS(=O)(=O)c1ccc(C(=O)O)cc1", "note": "[Carzenide (4-Carboxybenzenesulfonamide, 97%)]", "cell-surface Lgr5 expression": "active: 1.3"}
{"smiles": "CCN(CC)CCCC(C)Nc1c2ccc(Cl)cc2nc2ccc(OC)cc12", "note": "(stereo not given) [Quinacrine]", "cell-surface Lgr5 expression": "inactive: 0.864"}
{"smiles": "Cc1nc(C)c(Cl)c(O)c1Cl", "note": "[Clopidol]", "cell-surface Lgr5 expression": "inactive: 1.05"}
{"smiles": "CCCCCCCCCCCCCCCC[N+](C)(C)CCN(Cc1ccc(OC)cc1)c1ncccn1", "note": "[Thonzonium bromide]", "cell-surface Lgr5 expression": "inactive: 1.56"}
{"smiles": "CC1=C(C)C(=O)C(CCCCC#CCCCC#CCO)=C(C)C1=O", "note": "[Docebenone (AA-861)]", "cell-surface Lgr5 expression": "inactive: 1.25"}
{"smiles": "C#C[C@]1(O)CC[C@H]2[C@@H]3CCc4cc(OC)ccc4[C@H]3CC[C@@]21C", "note": "[Mestranol (Ethynylestradiol 3-Methyl Ester)]", "cell-surface Lgr5 expression": "inactive: 0.929"}
{"smiles": "CC(C)NCC(O)c1ccc(NS(C)(=O)=O)cc1", "note": "(stereo not given) [Sotalol]", "cell-surface Lgr5 expression": "inactive: 1.13"}
{"smiles": "O.O.O.O.O.O.O=C([O-])CCC(=O)[O-].[Na+].[Na+]", "note": "[Sodium succinate dibasic hexahydrate]", "cell-surface Lgr5 expression": "inactive: 1.06"}
{"smiles": "Clc1ccccc1CN1CCc2sccc2C1", "note": "[Ticlopidine]", "cell-surface Lgr5 expression": "inactive: 0.943"}
{"smiles": "Cc1cc(C(C)(C)CC(C)(C)C)ccc1OCCOCC[N+](C)(C)Cc1ccccc1", "note": "[Methylbenzethonium chloride]", "cell-surface Lgr5 expression": "active: 1.67"}
{"smiles": "CN(C)CCCN1c2ccccc2CCc2ccc(Cl)cc21", "note": "[Clomipramine]", "cell-surface Lgr5 expression": "inactive: 1.29"}
{"smiles": "C#C[C@]1(OC(C)=O)CC[C@H]2[C@@H]3CCC4=C[C@@H](OC(C)=O)CC[C@@H]4[C@H]3CC[C@@]21C", "note": "[Ethynodiol diacetate]", "cell-surface Lgr5 expression": "inactive: 1.02"}
{"smiles": "Nc1ccc(S(=O)(=O)Nc2ncccn2)cc1", "note": "[Sulfadiazine]", "cell-surface Lgr5 expression": "inactive: 0.819"}
{"smiles": "CO[C@@]1(NC(=O)C(C(=O)O)c2ccc(O)cc2)C(=O)N2C(C(=O)O)=C(CSc3nnnn3C)CO[C@@H]21", "note": "(stereo not given in full) [Moxalactam]", "cell-surface Lgr5 expression": "inactive: 0.813"}
{"smiles": "CCCCCCCCCCCCOS(=O)(=O)[O-].[Na+]", "note": "[Sodium lauryl sulfate (SDS)]", "cell-surface Lgr5 expression": "inactive: 0.793"}
{"smiles": "CCCCCCCCCCCCOS(=O)(=O)[O-].[Na+]", "note": "[Sodium lauryl sulfate (Sodium dodecyl sulfate)]", "cell-surface Lgr5 expression": "inactive: 0.864"}
{"smiles": "CC[N+](CC)(CC)CC", "note": "[Tetraethylammonium chloride hydrate]", "cell-surface Lgr5 expression": "inactive: 1.13"}
{"smiles": "CCC(Br)(CC)C(=O)NC(=O)NC(C)=O", "note": "[Acecarbromal (acetylcarbromal)]", "cell-surface Lgr5 expression": "inactive: 1.07"}
{"smiles": "Clc1ccc2c(c1)N=C(N1CCNCC1)c1ccccc1N2", "note": "[N-Desmethylclozapine]", "cell-surface Lgr5 expression": "inactive: 0.803"}
{"smiles": "CC(=O)OC/C=C(C)/C=C/C=C(C)/C=C/C1=C(C)CCCC1(C)C", "note": "[Vitamin A acetate (all trans-Retinol acetate)]", "cell-surface Lgr5 expression": "inactive: 1.09"}
{"smiles": "CC(=O)OC/C=C(C)/C=C/C=C(C)/C=C/C1=C(C)CCCC1(C)C", "note": "[Vitamin A (acetate)]", "cell-surface Lgr5 expression": "inactive: 0.841"}
{"smiles": "NS(=O)(=O)c1cc2c(cc1Cl)N=C(CSCc1ccccc1)NS2(=O)=O", "note": "[Benzthiazide]", "cell-surface Lgr5 expression": "inactive: 0.919"}
{"smiles": "CS(=O)(=O)c1ccc([C@@H](O)[C@@H](CO)NC(=O)C(Cl)Cl)cc1", "note": "[Thiamphenicol]", "cell-surface Lgr5 expression": "inactive: 1.01"}
{"smiles": "C[C@@H](c1ncncc1F)[C@](O)(Cn1cncn1)c1ccc(F)cc1F", "note": "[Voriconazole]", "cell-surface Lgr5 expression": "inactive: 0.371"}
{"smiles": "O=C(O)Cc1ccccc1Nc1c(Cl)cccc1Cl", "note": "[Diclofenac sodium salt]", "cell-surface Lgr5 expression": "inactive: 1.04"}
{"smiles": "Br.N", "note": "[Ammonium bromide]", "cell-surface Lgr5 expression": "inactive: 1.09"}
